# Reference: patent US20120014912A1, “PALATABLE PHARMACEUTICAL COMPOSITION” (VERTEX PHARMACEUTICALS INCORPORATED, priority 2010, published 2012)
# Assay: Taste and mouthfeel of VX-950 on oral intake (background finding)
smiles,measurement,setting,value
CCC[C@H](NC(=O)[C@@H]1[C@H]2CCC[C@H]2CN1C(=O)[C@@H](NC(=O)[C@@H](NC(=O)c1cnccn1)C1CCCCC1)C(C)(C)C)C(=O)C(=O)NC1CC1 [VX-950],bitter taste,VX-950 and excipients necessary to formulate it,very bitter
same,mouthfeel / mouth irritation,orally digested,leaves a dry mouthfeel and/or mouth irritation
